# “And” between values parts separate entries of the source, which are not always exact repeats. Equal values may be shown once. Where a name gives a salt, the structure may show the parent alone. ± gives the standard deviation of the averaged measurements. Some of the results follow. Part of the spread comes from offsets between plates or batches.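 Culture-activated primary human stellate myofibroblasts, where regained lipid droplets signal inactivation. Value: share of Hoechst-counted cells above a per-plate Bodipy cutoff, in duplicate wells, with DMSO negative and nortriptyline positive controls on each plate. Hits: a control-normalized score above the plate's top-tenth-percentile nortriptyline wells, or one of a plate's three best wells. Final well concentrations are not given.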
# Tested on: primary human hepatic stellate cells (donor 1)
# Assay: percent Bodipy-positive cells; higher = more lipid droplet accumulation
# Details: 48 h
# Method: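 Primary lipid accumulation screen in primary human hepatic stellate cell myofibroblasts (donor 1, passage 8) in 384-well plates. 100 nL of library compound was pin-transferred into 30 µL medium in duplicate, and cells were treated for 48 h. The 'Scaled' score combines distance from plate baseline, toxicity and reproducibility penalties, and is normalised to nortriptyline (positive) and DMSO (negative) controls on each plate. A hit is defined as scaled >0.85 or among the top 3 wells per plate.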
# [1] = library stock concentration: 10 mM
# [2] = library stock concentration: 3.33 mM
# [3] = library stock concentration: 80 uM
# [4] = library stock concentration: 400 uM
# [5] = library stock concentration: 2 mM
# [6] = library stock concentration: 1 mM
smiles,measurement,setting,value
CC(C)c1ccc2oc3nc(N)c(C(=O)O)cc3c(=O)c2c1,percent Bodipy-positive cells,[1],5.26 ± 4.4%
CC#CCOC(=O)c1c(C)nc2sc3c(c2c1N)CCC(O)C3 (stereo not drawn),percent Bodipy-positive cells,[1],91.7 ± 1.6%
Cc1cn([C@H]2O[C@@H](CO)[C@H](O)[C@H]2F)c(=O)[nH]c1=O [Clevudine],percent Bodipy-positive cells,[2],8.17 ± 2.4%
same,percent Bodipy-positive cells,[1],9.6 ± 2.6%
"Cc1cn(C2C=CC(CO)O2)c(=O)[nH]c1=O (stereo not drawn) [2',3'-didehydro-3'-deoxythymidine]",percent Bodipy-positive cells,[1],36.4 ± 6%
NC1(C(=O)N[C@@H](CCO)c2ccc(Cl)cc2)CCN(c2ncnc3[nH]ccc23)CC1,percent Bodipy-positive cells,[3],3.17 ± 0.84%
same,percent Bodipy-positive cells,[4],3.01 ± 1.4%
same,percent Bodipy-positive cells,[5],4.45 ± 0.59%
same,percent Bodipy-positive cells,[2],21.5 ± 6.8%
same,percent Bodipy-positive cells,[1],28.3% and 25%
CCCCCC(O)C=CC1C(O)CC(=O)C1CC=CCCCC(=O)O (stereo not drawn) [8-iso Prostaglandin E2],percent Bodipy-positive cells,[6],13.7 ± 5.1%
CC(CCc1ccccc1)NCC(O)c1ccc(O)c(C(N)=O)c1 (stereo not drawn) [Labetalol HCl],percent Bodipy-positive cells,[2],17.1 ± 3.4%
same,percent Bodipy-positive cells,[1],66 ± 6.8%
CC(CCc1ccccc1)NCC(O)c1ccc(O)c(C(N)=O)c1 (stereo not drawn) [Labetalol hydrochloride],percent Bodipy-positive cells,,48.3 ± 2.2%
same,percent Bodipy-positive cells,[1],66.3% and 49.1%
CC(CCc1ccccc1)NCC(O)c1ccc(O)c(C(N)=O)c1 (stereo not drawn),percent Bodipy-positive cells,[1],49.25 ± 0.48%
CCOC(=O)[C@H](CCc1ccccc1)N[C@@H](C)C(=O)N1Cc2ccccc2C[C@H]1C(=O)O [Quinapril hydrochloride],percent Bodipy-positive cells,[1],40.7 ± 18%
CCOC(=O)[C@H](CCc1ccccc1)N[C@@H](C)C(=O)N1Cc2ccccc2C[C@H]1C(=O)O,percent Bodipy-positive cells,[1],27.7 ± 4.8%
CCOC(=O)[C@H](CCc1ccccc1)N[C@@H](C)C(=O)N1Cc2ccccc2C[C@H]1C(=O)O [Quinapril HCl],percent Bodipy-positive cells,,10.2 ± 2%
same,percent Bodipy-positive cells,[2],11.88 ± 0.082%
same,percent Bodipy-positive cells,[1],9.99 ± 2.9%
CC1CC(OC(=O)C(O)c2ccccc2)CC(C)(C)C1 (stereo not drawn),percent Bodipy-positive cells,[1],61.7 ± 1.7%
CC1CC(OC(=O)C(O)c2ccccc2)CC(C)(C)C1 (stereo not drawn) [Cyclandelate],percent Bodipy-positive cells,[2],13.2 ± 6.8%
same,percent Bodipy-positive cells,[1],49.2 ± 1.3%
"CCCCCC(=O)CCC1C(=O)C=CC1C/C=C\CCCC(=O)O (stereo not drawn) [13,14-dihydro-15-keto Prostaglandin J2]",percent Bodipy-positive cells,[6],7.45 ± 2.4%
CC[C@]1(O)C[C@@H]2CN(CCc3c([nH]c4ccccc34)[C@@](C(=O)OC)(c3cc4c(cc3OC)N(C=O)[C@H]3[C@@](O)(C(=O)OC)[C@H](OC(C)=O)[C@]5(CC)C=CCN6CC[C@]43[C@@H]65)C2)C1.O=S(=O)(O)O,percent Bodipy-positive cells,[1],91.5 ± 4.5%
COc1ccc(C(Cl)=C(c2ccc(OC)cc2)c2ccc(OC)cc2)cc1 [Chlorotrianisene],percent Bodipy-positive cells,,9.13 ± 0.44%
same,percent Bodipy-positive cells,library stock concentration: 5.3 mM,5.06 ± 1%
same,percent Bodipy-positive cells,[1],16.8 ± 6.7%
Cc1oncc1C(=O)Nc1ccc(C(F)(F)F)cc1 [Leflunomide],percent Bodipy-positive cells,,11.4 ± 4%
same,percent Bodipy-positive cells,[3],10.9 ± 0.72%
same,percent Bodipy-positive cells,[4],11.7 ± 3.4%
same,percent Bodipy-positive cells,[5],7.31 ± 0.94%
same,percent Bodipy-positive cells,[2],13.4 ± 7.6%
O=c1[nH]c2cc(C(F)(F)F)c(N3CCOCC3)cc2n(CP(=O)(O)O)c1=O,percent Bodipy-positive cells,[1],3.95 ± 1.1%
O=C(O)c1cccnc1Nc1cccc(C(F)(F)F)c1 [Niflumic acid],percent Bodipy-positive cells,,24.78 ± 0.044%
same,percent Bodipy-positive cells,[2],10.3 ± 5.3%
same,percent Bodipy-positive cells,library stock concentration: 7.1 mM,6.46 ± 0.64%
same,percent Bodipy-positive cells,library stock concentration: 17.7 mM,14.6 ± 3.6%
O=C(O)c1cccnc1Nc1cccc(C(F)(F)F)c1 [Niflumic Acid],percent Bodipy-positive cells,[6],8.47 ± 1.8%
CN(C)/N=N/c1[nH]cnc1C(N)=O [Dacarbazine],percent Bodipy-positive cells,,36.8 ± 1.8%
same,percent Bodipy-positive cells,[2],11.3 ± 6.8%
same,percent Bodipy-positive cells,[1],16.8 ± 9%
same,percent Bodipy-positive cells,library stock concentration: 11 mM,5.5% and 1.52%
CCCCCC[C@@H]([C@@H](C)O)n1cnc2c(N)ncnc21 [erythro-9-(2-Hydroxy-3-nonyl)adenine hydrochloride],percent Bodipy-positive cells,[1],51.8 ± 1.5%
CCCCC[C@H](O)C/C=C1/C(=O)C[C@H](O)[C@@H]1C/C=C\CCCC(=O)O [.DELTA.12-Prostaglandin D2],percent Bodipy-positive cells,[6],7.47 ± 2.7%
CC1C(=O)OC2C(O)C34C5CC(C(C)(C)C)C36C(OC(=O)C6O)OC4(C(=O)O5)C12O (stereo not drawn) [Ginkgolide B],percent Bodipy-positive cells,[2],7.6055 ± 0.005%
same,percent Bodipy-positive cells,[1],17.9% and 8.29%
C[N+](C)(C)CCCCCC[N+](C)(C)C [Hexamethonium dibromide dihydrate],percent Bodipy-positive cells,,26.2 ± 1.6%
C[N+](C)(C)CCCCCC[N+](C)(C)C [Hexamethonium dichloride],percent Bodipy-positive cells,[1],44.7 ± 10%
Cc1ccc(/C=C2\CNC/C(=C\c3ccc(C)cc3)C2=O)cc1.Cl,percent Bodipy-positive cells,[1],100%
CC[N+](C)(C)Cc1ccccc1Br [Bretylium tosylate],percent Bodipy-positive cells,,8.29 ± 0.84%
same,percent Bodipy-positive cells,library stock concentration: 4.8 mM,15.3 ± 3%
same,percent Bodipy-positive cells,[1],21.6 ± 16%
CCCCCCCCc1ccc(-c2ccc(C(=O)O)cc2)cc1,percent Bodipy-positive cells,[1],17.1% and 5.05%
Cn1cc(-c2ccc3ncc(Cc4ccc5ncccc5c4)n3n2)cn1,percent Bodipy-positive cells,[2],6.49 ± 1.1%
same,percent Bodipy-positive cells,[1],23.7 ± 4.3%
Cc1cc(O)c(C=O)c2c1C(=O)Oc1c(C)c(O)c3c(c1O2)C(O)OC3=O (stereo not drawn) [Norstictic acid],percent Bodipy-positive cells,[1],19.9 ± 4.2%

# A section from further up, for reference:
smiles,measurement,setting,value
C[N+](C)(C)CCCCCC[N+](C)(C)C [Hexamethonium dichloride],percent Bodipy-positive cells,[1],44.7 ± 10%
Cc1ccc(/C=C2\CNC/C(=C\c3ccc(C)cc3)C2=O)cc1.Cl,percent Bodipy-positive cells,[1],100%
CC[N+](C)(C)Cc1ccccc1Br [Bretylium tosylate],percent Bodipy-positive cells,,8.29 ± 0.84%
